Data source: PubChem BioAssay AID504774 (Drosophila RNAi Screening Center, 2011)
The deposit covers about 23,000 reagents; shown is an unselected part of those that have a named target and a result. 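Values are quantile-normalised luminescence on an arbitrary scale; higher means more cells surviving MMS.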 A plus sign joins genes that one reagent is predicted to hit. Further read-outs or replicates are left out here.

- Screen: 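Genes required for cells to withstand methyl methanesulphonate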 (primary screen)
- Cell system: Drosophila Kc167 cells
- Reagents: long dsRNA against Drosophila genes, about 0.25 µg dsRNA per well
- Timing: about 6 days: 3 days knock-down, then 3 days with or without MMS
- Conditions: methyl methanesulphonate 0.004% (w/v) for 3 days after knock-down
- Detection: 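Viability in wells given MMS, read as ATP luminescence, normalised by quantiles plate by plate and averaged across replicates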
- Direction: mean viability with MMS and viability with MMS: higher = more surviving cells after MMS

With knock-down of Cyp12d1-d + Cyp12d1-p [DRSC21507] the results were mean viability with MMS 3.47e6; viability with MMS, replicate 1 = 3.96e6.
Silencing of trsn [DRSC06078] gave: mean viability with MMS 3.58e6; viability with MMS, replicate 1 = 4.01e6.
Against CG9517 (retired record) [DRSC20192], the values are mean viability with MMS 3.68e6; viability with MMS, replicate 1 = 4.16e6.
Knock-down of CG9517 (retired record) [DRSC20193] came out at: mean viability with MMS 3.50e6; viability with MMS, replicate 1 = 4.01e6.
Depletion of Naa20B [DRSC21442] came out at: mean viability with MMS 3.56e6; viability with MMS, replicate 1 = 4.08e6.
Knock-down of CG43367 + CG32252 (retired record) [DRSC21715] gave: mean viability with MMS 3.43e6; viability with MMS, replicate 1 = 3.86e6.
For Hsp70Bc [DRSC16053], the entry reads mean viability with MMS 3.42e6; viability with MMS, replicate 1 = 3.84e6.
Against Ccdc114 [DRSC15025], the values are mean viability with MMS 3.54e6; viability with MMS, replicate 1 = 3.98e6.
Knock-down of Mal-A3 [DRSC07462] came out at: mean viability with MMS 3.48e6; viability with MMS, replicate 1 = 3.90e6.
Against CG43658 [DRSC20111], the values are mean viability with MMS 3.58e6; viability with MMS, replicate 1 = 4.10e6.
After knock-down of nmdyn-D6 [DRSC20355], the screen gave mean viability with MMS 3.62e6; viability with MMS, replicate 1 = 3.98e6.
With knock-down of CG2186 [DRSC19838], the screen gave mean viability with MMS 3.61e6; viability with MMS, replicate 1 = 4.24e6.
Neurl4 [DRSC10638] showed mean viability with MMS 3.50e6; viability with MMS, replicate 1 = 3.96e6.
CG14556 [DRSC14899] showed mean viability with MMS 3.53e6; viability with MMS, replicate 1 = 4.06e6.

Limited to “mean viability with MMS” (2 entries from above):
CG9517 (retired record) [DRSC20192]: 3.68e6
CG9517 (retired record) [DRSC20193]: 3.50e6
